Experimental data taken from paper doi:10.1101/2021.02.02.429251.
Results are given in words; binding and its absence hold for the method and conditions named. Some entries that bind do so weakly or less than the wild type. Where a sequence is shown, tags or fusion partners need not be part of it.

Target: Grh1-GFP (GFP-tagged Golgi Reassembly and Stacking Protein Grh1 of S. cerevisiae) (S. cerevisiae) (UniProt Q04410)
Assay: ultracentrifugation in SDS, dot blot of the pellet

binding: binds
B1: Grh1-GFP (GFP-tagged Golgi Reassembly and Stacking Protein Grh1 of S. cerevisiae) (protein, UniProt Q04410 1-372)
chain: MFRIAKNLVRTFEQSVQDTLALSQDSSNLDAFFQSIPPNLLSAQLESPVDAVSEGVKHTNVNETLSGLRIVWVDEMQFQLQSFFDYIVGFNDDPVPVVSNQHGFSYPDYRRITSIFNEHCGRTLKVNIWSAKGGTFRDEYISIISKESDDLDDVSLNHDERRPSSGEAHQFQALGFKVQWTPLIASTFTYHILNVNIPDGPAQSAGLIPDEDYIIGCQDGLLATGGETLLQDIVRSRANYDLVLYVYNKVSDCVRPITVHIGPDGRLGCNVGYGFLHRIPTVKHCPQQAQQQGQDDNPVPVPVPVESETAFVPSAFTAPPVPTKKKSKNKKGTQPLAMDDYFNEGRDKSSTAAKSAESDILAPPPQKQSSSD
